According to the supplement of paper PMC12819154, “High-throughput peptide-centric local stability assay extends protein–ligand identification to membrane proteins, tissues and bacteria” (Nature Structural & Molecular Biology, 2025):
This is one part of the list. Small differences around the control level are noise.

Chains of the proteins cited; added tags and fusions are not shown. Lines headed by an entry give the natural chain unless they say otherwise; changes in a name come on top.
UniProt Q8NCN2: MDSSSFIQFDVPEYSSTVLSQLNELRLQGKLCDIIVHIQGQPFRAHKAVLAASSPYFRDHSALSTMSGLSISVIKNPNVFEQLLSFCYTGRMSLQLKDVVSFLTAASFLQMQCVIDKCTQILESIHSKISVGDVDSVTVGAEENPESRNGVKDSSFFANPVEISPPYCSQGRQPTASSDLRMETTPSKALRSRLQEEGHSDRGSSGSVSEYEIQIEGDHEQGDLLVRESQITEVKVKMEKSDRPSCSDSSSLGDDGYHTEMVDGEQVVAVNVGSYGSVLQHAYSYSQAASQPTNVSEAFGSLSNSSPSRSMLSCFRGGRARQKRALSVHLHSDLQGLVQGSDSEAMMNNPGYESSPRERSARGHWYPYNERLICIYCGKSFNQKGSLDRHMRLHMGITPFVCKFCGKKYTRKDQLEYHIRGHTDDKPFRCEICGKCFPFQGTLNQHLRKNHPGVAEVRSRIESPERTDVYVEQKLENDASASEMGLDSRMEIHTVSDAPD
UniProt Q8N1G4: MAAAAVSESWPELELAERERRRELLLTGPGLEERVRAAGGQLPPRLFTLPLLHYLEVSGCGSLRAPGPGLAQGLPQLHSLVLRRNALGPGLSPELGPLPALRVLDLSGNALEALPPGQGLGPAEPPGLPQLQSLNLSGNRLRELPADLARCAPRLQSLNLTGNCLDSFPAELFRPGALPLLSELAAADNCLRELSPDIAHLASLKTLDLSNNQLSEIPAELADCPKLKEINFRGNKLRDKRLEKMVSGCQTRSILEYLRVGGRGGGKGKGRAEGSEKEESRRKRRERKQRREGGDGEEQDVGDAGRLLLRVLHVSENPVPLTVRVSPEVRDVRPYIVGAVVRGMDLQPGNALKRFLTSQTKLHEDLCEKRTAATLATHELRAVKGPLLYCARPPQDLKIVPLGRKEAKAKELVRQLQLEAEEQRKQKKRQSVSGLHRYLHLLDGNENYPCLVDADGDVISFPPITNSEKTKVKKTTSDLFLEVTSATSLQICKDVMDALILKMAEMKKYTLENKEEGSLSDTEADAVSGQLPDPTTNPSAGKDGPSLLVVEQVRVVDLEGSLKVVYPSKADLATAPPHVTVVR
UniProt Q8NC60: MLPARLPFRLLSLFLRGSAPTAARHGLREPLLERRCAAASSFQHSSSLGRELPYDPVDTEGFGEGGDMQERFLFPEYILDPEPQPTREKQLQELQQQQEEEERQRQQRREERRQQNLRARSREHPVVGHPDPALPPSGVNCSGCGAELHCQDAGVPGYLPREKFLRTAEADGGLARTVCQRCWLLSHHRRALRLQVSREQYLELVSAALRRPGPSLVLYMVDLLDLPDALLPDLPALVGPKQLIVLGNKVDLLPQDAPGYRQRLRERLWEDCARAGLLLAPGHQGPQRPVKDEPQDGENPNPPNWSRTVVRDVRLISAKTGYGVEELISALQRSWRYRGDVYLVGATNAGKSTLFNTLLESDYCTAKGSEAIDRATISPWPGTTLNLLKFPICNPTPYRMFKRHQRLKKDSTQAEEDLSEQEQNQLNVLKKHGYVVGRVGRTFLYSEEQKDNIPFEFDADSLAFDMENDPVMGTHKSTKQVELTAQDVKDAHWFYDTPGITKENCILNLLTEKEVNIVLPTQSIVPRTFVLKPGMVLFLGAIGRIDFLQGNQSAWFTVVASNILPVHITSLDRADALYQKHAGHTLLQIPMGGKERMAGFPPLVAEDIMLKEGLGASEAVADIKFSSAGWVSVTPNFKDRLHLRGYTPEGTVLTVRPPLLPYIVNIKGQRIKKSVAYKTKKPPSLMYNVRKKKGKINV
UniProt Q8N960: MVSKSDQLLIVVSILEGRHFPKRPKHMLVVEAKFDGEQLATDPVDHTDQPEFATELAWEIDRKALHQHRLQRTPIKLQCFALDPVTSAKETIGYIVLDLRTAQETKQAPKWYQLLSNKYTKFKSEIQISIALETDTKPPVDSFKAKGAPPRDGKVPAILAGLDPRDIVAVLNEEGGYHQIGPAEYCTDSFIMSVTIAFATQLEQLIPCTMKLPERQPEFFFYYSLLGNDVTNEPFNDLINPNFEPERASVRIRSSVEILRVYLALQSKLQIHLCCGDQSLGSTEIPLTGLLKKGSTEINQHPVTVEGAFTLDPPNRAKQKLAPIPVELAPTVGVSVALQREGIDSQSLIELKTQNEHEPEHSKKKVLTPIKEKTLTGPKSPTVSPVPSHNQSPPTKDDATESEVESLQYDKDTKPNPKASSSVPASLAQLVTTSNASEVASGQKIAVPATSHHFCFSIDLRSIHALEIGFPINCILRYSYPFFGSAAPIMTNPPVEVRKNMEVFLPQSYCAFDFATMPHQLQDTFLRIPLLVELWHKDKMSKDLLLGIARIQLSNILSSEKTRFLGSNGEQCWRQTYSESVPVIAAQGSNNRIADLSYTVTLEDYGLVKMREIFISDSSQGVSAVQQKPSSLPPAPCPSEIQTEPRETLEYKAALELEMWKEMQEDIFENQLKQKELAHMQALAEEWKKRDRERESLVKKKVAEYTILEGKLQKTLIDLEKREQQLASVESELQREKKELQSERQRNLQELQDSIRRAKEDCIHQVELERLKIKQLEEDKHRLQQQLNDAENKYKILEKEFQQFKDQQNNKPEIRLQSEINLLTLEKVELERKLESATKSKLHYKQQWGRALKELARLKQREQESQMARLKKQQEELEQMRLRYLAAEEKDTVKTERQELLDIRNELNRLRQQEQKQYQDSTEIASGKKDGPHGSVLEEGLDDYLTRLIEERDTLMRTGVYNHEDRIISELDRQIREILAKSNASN
UniProt Q8NC44: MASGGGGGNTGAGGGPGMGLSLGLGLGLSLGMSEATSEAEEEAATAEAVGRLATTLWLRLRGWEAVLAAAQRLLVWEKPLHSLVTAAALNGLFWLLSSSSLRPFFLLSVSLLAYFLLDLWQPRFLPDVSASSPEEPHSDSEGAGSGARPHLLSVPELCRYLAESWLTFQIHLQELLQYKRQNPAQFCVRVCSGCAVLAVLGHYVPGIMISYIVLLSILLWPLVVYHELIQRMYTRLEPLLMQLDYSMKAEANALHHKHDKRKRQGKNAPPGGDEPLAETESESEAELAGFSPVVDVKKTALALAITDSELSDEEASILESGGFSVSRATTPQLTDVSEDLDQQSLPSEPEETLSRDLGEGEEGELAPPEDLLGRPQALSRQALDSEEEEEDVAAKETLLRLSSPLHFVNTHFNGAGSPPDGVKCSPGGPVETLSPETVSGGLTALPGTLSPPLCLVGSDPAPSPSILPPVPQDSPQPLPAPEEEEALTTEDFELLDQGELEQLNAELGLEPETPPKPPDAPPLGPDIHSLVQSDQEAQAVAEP
UniProt Q8N283: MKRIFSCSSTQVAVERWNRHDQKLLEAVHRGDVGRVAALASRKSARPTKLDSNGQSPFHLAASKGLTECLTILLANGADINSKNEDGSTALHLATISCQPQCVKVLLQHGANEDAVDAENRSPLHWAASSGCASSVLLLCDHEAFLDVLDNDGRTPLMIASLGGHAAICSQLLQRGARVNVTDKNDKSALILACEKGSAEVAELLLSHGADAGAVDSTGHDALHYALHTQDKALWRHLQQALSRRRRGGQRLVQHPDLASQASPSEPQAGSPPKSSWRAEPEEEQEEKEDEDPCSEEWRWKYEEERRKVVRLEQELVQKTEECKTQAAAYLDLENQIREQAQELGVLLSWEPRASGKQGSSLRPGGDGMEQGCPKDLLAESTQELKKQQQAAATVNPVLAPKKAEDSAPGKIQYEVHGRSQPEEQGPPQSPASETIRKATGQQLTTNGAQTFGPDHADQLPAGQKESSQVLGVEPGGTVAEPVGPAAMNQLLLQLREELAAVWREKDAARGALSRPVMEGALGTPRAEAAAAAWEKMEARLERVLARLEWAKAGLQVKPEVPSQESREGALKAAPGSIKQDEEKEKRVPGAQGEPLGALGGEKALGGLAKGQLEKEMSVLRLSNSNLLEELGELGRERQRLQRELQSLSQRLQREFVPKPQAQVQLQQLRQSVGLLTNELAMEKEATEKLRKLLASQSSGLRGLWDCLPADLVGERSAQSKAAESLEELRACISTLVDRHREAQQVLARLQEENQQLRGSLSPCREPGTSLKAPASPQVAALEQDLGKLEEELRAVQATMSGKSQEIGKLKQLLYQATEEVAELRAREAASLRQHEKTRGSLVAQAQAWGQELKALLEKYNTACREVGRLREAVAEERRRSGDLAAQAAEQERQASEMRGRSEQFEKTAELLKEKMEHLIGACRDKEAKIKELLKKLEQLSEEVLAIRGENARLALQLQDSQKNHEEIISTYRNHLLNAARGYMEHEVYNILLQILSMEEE
UniProt Q8NDX1: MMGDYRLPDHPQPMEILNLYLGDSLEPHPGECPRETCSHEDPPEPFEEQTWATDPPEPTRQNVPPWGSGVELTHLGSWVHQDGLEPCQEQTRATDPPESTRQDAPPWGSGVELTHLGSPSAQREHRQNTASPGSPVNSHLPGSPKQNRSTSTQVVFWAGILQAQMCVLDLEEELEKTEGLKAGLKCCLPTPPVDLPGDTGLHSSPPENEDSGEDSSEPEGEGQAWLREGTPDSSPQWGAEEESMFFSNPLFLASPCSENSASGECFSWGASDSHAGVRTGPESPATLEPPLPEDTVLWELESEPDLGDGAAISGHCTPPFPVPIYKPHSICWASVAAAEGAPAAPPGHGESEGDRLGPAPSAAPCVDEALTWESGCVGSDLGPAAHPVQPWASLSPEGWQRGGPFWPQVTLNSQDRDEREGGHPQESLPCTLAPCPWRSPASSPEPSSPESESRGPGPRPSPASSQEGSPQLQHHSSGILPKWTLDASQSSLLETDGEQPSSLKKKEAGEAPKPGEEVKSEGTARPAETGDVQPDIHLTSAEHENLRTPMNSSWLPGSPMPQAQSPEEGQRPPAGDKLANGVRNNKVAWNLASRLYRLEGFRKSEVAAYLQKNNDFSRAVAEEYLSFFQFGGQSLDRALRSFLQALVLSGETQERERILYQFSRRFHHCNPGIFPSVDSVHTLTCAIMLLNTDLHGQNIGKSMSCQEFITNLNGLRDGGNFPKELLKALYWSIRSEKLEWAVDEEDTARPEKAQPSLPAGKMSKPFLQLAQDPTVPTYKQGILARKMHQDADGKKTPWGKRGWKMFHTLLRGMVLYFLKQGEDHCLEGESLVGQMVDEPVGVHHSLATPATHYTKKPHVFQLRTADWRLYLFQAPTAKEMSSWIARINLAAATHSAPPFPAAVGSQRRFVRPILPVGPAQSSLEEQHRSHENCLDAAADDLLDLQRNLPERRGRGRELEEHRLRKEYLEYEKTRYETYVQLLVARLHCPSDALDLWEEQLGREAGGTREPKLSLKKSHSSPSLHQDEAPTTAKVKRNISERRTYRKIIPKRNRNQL
UniProt Q8NEN9: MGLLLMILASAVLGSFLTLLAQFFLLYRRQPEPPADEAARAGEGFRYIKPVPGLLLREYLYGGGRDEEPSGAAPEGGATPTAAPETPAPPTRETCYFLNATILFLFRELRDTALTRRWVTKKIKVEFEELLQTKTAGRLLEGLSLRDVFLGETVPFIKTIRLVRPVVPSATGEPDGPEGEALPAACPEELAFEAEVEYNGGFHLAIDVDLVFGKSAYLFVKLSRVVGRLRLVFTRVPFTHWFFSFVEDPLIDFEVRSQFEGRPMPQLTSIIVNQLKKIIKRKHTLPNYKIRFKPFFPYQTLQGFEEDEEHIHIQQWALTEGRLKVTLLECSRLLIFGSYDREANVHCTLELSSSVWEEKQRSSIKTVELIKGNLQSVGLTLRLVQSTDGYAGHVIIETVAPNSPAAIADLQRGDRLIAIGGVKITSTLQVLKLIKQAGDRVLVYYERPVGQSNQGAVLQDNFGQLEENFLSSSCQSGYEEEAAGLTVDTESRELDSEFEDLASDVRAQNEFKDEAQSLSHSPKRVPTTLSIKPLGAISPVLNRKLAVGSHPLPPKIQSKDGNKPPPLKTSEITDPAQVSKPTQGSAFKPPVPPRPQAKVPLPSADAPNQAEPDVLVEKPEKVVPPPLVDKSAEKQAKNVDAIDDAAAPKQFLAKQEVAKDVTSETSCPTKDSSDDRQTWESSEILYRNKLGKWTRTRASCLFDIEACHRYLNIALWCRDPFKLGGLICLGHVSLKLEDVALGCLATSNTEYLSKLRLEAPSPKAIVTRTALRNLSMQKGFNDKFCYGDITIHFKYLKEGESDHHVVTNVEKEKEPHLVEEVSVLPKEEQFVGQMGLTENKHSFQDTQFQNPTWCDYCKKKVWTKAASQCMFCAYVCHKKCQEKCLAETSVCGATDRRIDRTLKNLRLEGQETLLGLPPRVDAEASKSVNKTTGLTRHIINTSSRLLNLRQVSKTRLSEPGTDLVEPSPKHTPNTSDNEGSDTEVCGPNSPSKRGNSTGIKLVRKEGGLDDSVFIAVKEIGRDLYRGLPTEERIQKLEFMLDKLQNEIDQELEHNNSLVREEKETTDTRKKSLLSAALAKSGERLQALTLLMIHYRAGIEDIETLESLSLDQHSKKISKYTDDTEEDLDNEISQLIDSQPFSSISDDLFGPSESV

compound: Cc1nc(Nc2ncc(C(=O)Nc3c(C)cccc3Cl)s2)cc(N2CCN(CCO)CC2)n1 [dasatinib]; assay: log2 fold change of tryptic peptide abundance, ligand vs vehicle (limited proteolysis) (log2 ratio); higher = more trypsin-susceptible (destabilized); details: ligand concentration: 5 uM; sample: K562 cleared lysate

Row | Target | log2 fold change
1 | INTS1 (peptide sequence: ELLSAHKDNLGTTIK, peptide start residue: 429) (UniProt Q8N201) | -0.397
2 | APPL2 (peptide sequence: VKTEVGKEVAAAR, peptide start residue: 159) (UniProt Q8NEU8) | -0.151
3 | UniProt Q8N531 (peptide sequence: LSGCHGVTADALVMLAK, peptide start residue: 227) | 0.438
4 | ZNF579 (peptide sequence: FWCPECGK, peptide start residue: 384) (UniProt Q8NAF0) | 0.201
5 | UniProt Q8N9W4 (peptide sequence: ELREQEK, peptide start residue: 280) | -0.0265
6 | ZBTB34 (peptide sequence: QPTASSDLR, peptide start residue: 173) (UniProt Q8NCN2) | 0.188
7 | LRRC47 (peptide sequence: RNALGPGLSPELGPLPALR, peptide start residue: 84) (UniProt Q8N1G4) | 0.32
8 | UniProt Q8NC60 (peptide sequence: TKKPPSLMYNVR, peptide start residue: 679) | 0.225
9 | FLAD1 (peptide sequence: HPQLEAVLMGTRR, peptide start residue: 478) (UniProt Q8NFF5) | -0.417
10 | MICALL1 (peptide sequence: HRPDLLDFDSLSKDNVFENNR, peptide start residue: 44) (UniProt Q8N3F8) | -0.47
11 | CCNYL1 (peptide sequence: ASTIFLSK, peptide start residue: 65) (UniProt Q8N7R7) | 0.105
12 | SCCPDH (peptide sequence: NVSNLKPVPLIGPK, peptide start residue: 215) (UniProt Q8NBX0) | 0.244
13 | LCORL (peptide sequence: QFAIEYISK, peptide start residue: 167) (UniProt Q8N3X6) | -0.47
14 | USP32 (peptide sequence: IGFLSYEEALR, peptide start residue: 8) (UniProt Q8NFA0) | -0.416
15 | ZNF655 (peptide sequence: SCSPSSGIIQHK, peptide start residue: 283) (UniProt Q8N720) | -0.53
16 | UniProt Q8N8R7 (peptide sequence: SCCDPFNIHKK, peptide start residue: 74) | -0.0617
17 | CEP120 (peptide sequence: VAEYTILEGK, peptide start residue: 702) (UniProt Q8N960) | 0.264
18 | UniProt Q8N7M2 (peptide sequence: HERVHTNEK, peptide start residue: 589) | -0.694
19 | TNRC6A (peptide sequence: LGSLDCSHSFSSR, peptide start residue: 1882) (UniProt Q8NDV7) | 0.542

Individual results from above.
For log2 fold change, SCCPDH (peptide sequence: NVSNLKPVPLIGPK, peptide start residue: 215) (UniProt Q8NBX0) is listed with 0.244
For log2 fold change, MICALL1 (peptide sequence: HRPDLLDFDSLSKDNVFENNR, peptide start residue: 44) (UniProt Q8N3F8) is listed with -0.47

Next part:

Row | Target | log2 fold change
20 | ZNF740 (peptide sequence: NFVCEHCFGAFR, peptide start residue: 100) (UniProt Q8NDX6) | 0.213
21 | POC5 (peptide sequence: NDAGIDSTNNKK, peptide start residue: 374) (UniProt Q8NA72) | 0.909
22 | UniProt Q8N8J0 (peptide sequence: EFDFFNK, peptide start residue: 1734) | -0.179
23 | UniProt Q8NC44 (peptide sequence: AEANALHHK, peptide start residue: 249) | -0.554
24 | UniProt Q8N782 (peptide sequence: LMGSTEQYDHR, peptide start residue: 119) | 0.906
25 | WDTC1 (peptide sequence: KWDGDHYDALR, peptide start residue: 410) (UniProt Q8N5D0) | -0.143
26 | UniProt Q8N283 (peptide sequence: ALGGLAK, peptide start residue: 604) | -0.0832
27 | FBXW8 (peptide sequence: SGNIALSLSAHQLR, peptide start residue: 464) (UniProt Q8N3Y1) | -0.22
28 | TCP11L2 (peptide sequence: SSSPASTSPPR, peptide start residue: 48) (UniProt Q8N4U5) | -0.144
29 | SRBD1 (peptide sequence: ILYNSLNDSFKR, peptide start residue: 484) (UniProt Q8N5C6) | -0.185
30 | UniProt Q8NG27 (peptide sequence: DKLDPVPAAR, peptide start residue: 180) | -0.0189
31 | IQUB (peptide sequence: QYAMQRPNDDSLAFLDKIK, peptide start residue: 98) (UniProt Q8NA54) | -0.0669
32 | UniProt Q8NCY6 (peptide sequence: SAYDEPHLLVNIEK, peptide start residue: 196) | -0.154
33 | UniProt Q8N6R0 (peptide sequence: KAVGHFSR, peptide start residue: 169) | 0.49
34 | PSD4 (peptide sequence: EAGEAPKPGEEVK, peptide start residue: 507) (UniProt Q8NDX1) | 0.176
35 | RNF169 (peptide sequence: LLPEDTETGKR, peptide start residue: 211) (UniProt Q8NCN4) | -0.337
36 | PDZD8 (peptide sequence: KEGGLDDSVFIAVK, peptide start residue: 1004) (UniProt Q8NEN9) | -0.346
37 | SUMF2 (peptide sequence: ERLEHPVLHVSWNDAR, peptide start residue: 138) (UniProt Q8NBJ7) | -0.489
